## Primary screen of a compound library

From ChEMBL document CHEMBL3988442, “University of Dundee, Small-Polar-MMV Screening Library” (2021).

T. brucei: 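Whole-parasite assay of Trypanosoma brucei over 72 hours; the read-out is not stated. Tested at 30 µM. The record gives no direction; compounds that gave an IC50 in retests scored well above the rest, so higher reads as stronger inhibition. Values scatter widely below zero; nearly all retest evidence comes from the higher of the two concentrations used. Of about 64,000 compounds tested this way, about 940 (1.5%) reached 50% or more in at least one test.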
Leishmania in macrophages: 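Cell assay of Leishmania donovani living inside macrophages; the read-out is not stated. Concentration: 30 µM. The record gives no direction; compounds that gave an IC50 in retests scored well above the rest, so higher reads as stronger inhibition. About 69,000 compounds were tested under these conditions; 1.5% (about 1,000) showed 50% or more at least once.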

Results are given as percent effect. The controls that fix the scale are not given in the record; negative values are as filed. The compounds are a random part of those screened. Two or more numbers in one place are separate tests of the same structure; such repeats can differ widely. A dash means the value is not listed here; it may have been measured.

structure | T. brucei | Leishmania in macrophages
CN(CCCNC(=O)c1ccccc1OCC(N)=O)CC(F)(F)F | -12.26% | 5.373%
COc1cc(CO)ccc1OCc1nc(C(C)C)no1 | -20.24% | 0.8956%
O=C(O)C(F)(F)F.O=C(O)C(F)(F)F.[H][C@@]12OCCN(Cc3ccc(OC)cc3)[C@@]1([H])CC[C@H]2OCCN1CCCC1 | -2.76% | -9.764%
Cc1cnc(CN(Cc2cccc(O)c2)CC2CC2)cn1 | -4.869% | 15.08% & 30.26%
COCCNc1nc2c(c(NCc3cnc(C)cn3)n1)CCNCC2 | -29.49% | 16.89%
CCN(CC)Cc1cn2c(n1)CN(C(=O)c1cc(C)on1)CC2.O=C(O)C(F)(F)F | - | 21.11%
CC(C)c1cccc(CSc2nnc(Cn3cncn3)o2)n1 | -32.36% | 3.275%
COC(=O)C1CCN(c2cc(C)nc(-c3ccncc3)n2)CC1 | - | 13.15%
Cc1nc(N2CCCC2)ncc1C(=O)Nc1ccc(Br)cc1 | 12.76% | -48.37%
CCOCC1CN(C(=O)c2cscn2)Cc2cn(C)nc21.O=C(O)C(F)(F)F (stereo unspecified) | 39.56% | -0.7565%
CCc1ccc(CN(CCCn2ccnc2)Cc2ccc(C)s2)o1.O=C(O)CC(O)(CC(=O)O)C(=O)O | -19.1% | 12.85%
O=C(Nc1ccccn1)C1CCN(Cc2cccc3c2OCCO3)CC1 | -50.57% | -3.243%
CC(O)CN1CCN(C(=O)CCOC(C)C)CC1 (stereo unspecified) | 2.994% | -5.792%
O=C(CN1CCCCC1)Nc1cc(C(F)(F)F)ccc1-n1cccc1 | - | 3.521%
O=C(O)C(F)(F)F.O=C(O)C(F)(F)F.[H][C@@]12CCN(Cc3ccncc3)CC[C@@]1([H])N(S(C)(=O)=O)CCO2 | -50.12% | 18.35%
CCn1nc(C)c(CNC(=O)NCC(C)(O)c2ccsc2)c1C (stereo unspecified) | 8.249% | 30.32%
CN1CCN(C)C(CNC(=O)N(C)Cc2ccccc2Cl)C1 (stereo unspecified) | -9.517% | 43.78%
O=S(=O)(CCCN1CCCCC1Cn1cncn1)c1ccccc1 (stereo unspecified) | - | 39.46%
CC(=O)NCCC(=O)NCc1ccc(Br)cc1Cl | -7.372% | 13.14%
O=C1N(Cc2cccc(F)c2)CCC12CCCNC2 (stereo unspecified) | -7.802% | -7.943%
CCc1ccc(C(=O)N(CC)Cc2ccoc2)cc1S(C)(=O)=O | 7.582% | 13.92%
c1ccc(-c2nnn3c2COC(CNCC2CCOCC2)C3)cc1 (stereo unspecified) | 24.78% | 17.9%
CN(Cc1cnn(C)c1)C1CCN(c2cccc(-c3cscn3)c2)CC1 | 11.59% | 12%
Cc1cnc(N2CCCn3c(nnc3Cn3cccn3)C2)nc1 | - | 0.9991%
O=C(CC1CCc2ccccc21)NC1(C(=O)O)CCCC1 (stereo unspecified) | -112.8% | 0.1867%
Cc1nc(N(C)Cc2cccc(O)c2)nc2cc(S(C)(=O)=O)ccc12 | -26.38% | 16.02%
COCCN1CCC(NCc2ccc(Cl)cc2)C1 (stereo unspecified) | - | 10.13%
Cc1nc(Oc2ccccc2Cl)sc1C(=O)O | -36.68% | 24.9%
COc1cc(/C=C/c2ncc(C(=O)O)s2)cc(Cl)c1OC | -21.04% | -16.83%
O=C(c1ccc(COc2ccccc2Cl)o1)N1N=CCC1(O)C(F)(F)F (stereo unspecified) | 31% | -38.78%
CCOCCCNC(=O)Cc1cccs1 | -6.922% | 10.34%
Cc1nc(C(C)Nc2ncnc3c2CCNCC3)c(C)s1 (stereo unspecified) | -4.086% | 9.224%
CCC1CN(C(=O)c2cnc(-c3ccccc3)s2)CCO1 (stereo unspecified) | 46.34% | -0.5609%
Cc1cc(C)nc(C2CCN(c3ccncn3)C2)n1 (stereo unspecified) | - | -7.199%
O=C(O)C(F)(F)F.O=C(O)C(F)(F)F.[H][C@]12C[C@H](CN(C)C)O[C@@]1([H])CN(Cc1ccc(OC)cc1)C2 | 24.63% | 15.5%
COc1cc(F)ccc1-c1cc(CO)ccn1 | -46.46% | 12.12%
CS(=O)(=O)N1CCN(C(=O)c2cc(-c3ccc(Br)s3)n[nH]2)CC1 | 31.31% | 16.47%
Cc1cc(NC(=O)Nc2ccc3c(ccn3CCN(C)C)c2)n(C)n1 | 55.17% | 25.18%
CC(C)N1CCC(C(=O)N2CCN(c3cccc(C(=O)O)c3)CC2)CC1 | 3.45% | 9.313%
CNC(=O)CCc1cc(C)nc(C2CCN(C3CCCCC3)CC2)c1 | 4.168% | 29.81%
Cc1cnn(CC2CCCN2C(=O)c2ccc3c(c2)nnn3C)c1 (stereo unspecified) | -71.32% | -37.08%
Cc1ccsc1CN(C)c1nc2c(cnn2C(C)(C)C)c(=O)[nH]1 | -7.371% | 21.8%
Cc1cc(C)n(CC2CCCCN2CC(=O)Nc2nccs2)n1 (stereo unspecified) | -8.78% | -28.3%
Cc1ccc(-n2cccn2)cc1S(=O)(=O)N1C[C@H](C2CC2)[C@@H](N)C1 | 17.94% | 15.86%
COCCO[C@H]1CCN(C(=O)c2ccno2)[C@H]1Cc1cnn(C)c1 | -22.83% | -0.8835%
CCOCCC(=O)N(Cc1ccncc1)C(C)CC (stereo unspecified) | -28.29% | -24.22%
COc1cc(OC)cc(C2(O)CCN(Cc3ncc(C)o3)CC2)c1 | -67.81% | -15.63%
Cc1ccc(F)cc1S(=O)(=O)NCc1cccc(CS(C)(=O)=O)c1 | -50.54% | 13.48%
CCc1nnc(SCC(=O)Nc2cc(C(C)(C)C)nn2C)[nH]1 | -33.3% | 21.82%
Clc1ccccc1C1CN(CCc2ccncc2)CCO1 (stereo unspecified) | -35.86% | 16.54%
COc1ccc2c(c1)CCCN2C(=O)CN1CCOC(CN(C)C)C1 (stereo unspecified) | -7.138% | 27.11%
CCS(=O)(=O)CC(=O)Nc1cccc2c1CN(CC(C)C)C2 | 5.211% | -16.12%
O=C(CCSC1CCc2ccccc2NC1=O)NCCCO (stereo unspecified) | 9.601% | -4.988%
O=C(Cc1cccs1)NC1CCN(c2cccc(F)c2)CC1 | -35.03% | 26.53%
Cn1cc(Cl)cc1C(=O)N1CCN(Cc2ccsc2)CC1 | -14.28% | 7.123%
Cc1occc(=O)c1OCC(=O)N1CCc2ccccc2C1 | -21.2% | -2.35% & 3.17%
CC(=O)c1cccc(S(=O)(=O)N2CCC(c3n[nH]c(C)n3)CC2)c1 | -48.55% | -0.07019%
CCC(O)CN1CCN(C(=O)Cc2ccc(OC)cc2OC)CC1 (stereo unspecified) | - | 25.18%
CC1CCCN(CCNC(=O)c2ccn(-c3ccc(F)cc3)n2)C1 (stereo unspecified) | 63.43% | 25.32%
O=C(NC1CC(=O)N(C2Cc3ccccc3C2)C1)c1cc[n+]([O-])cc1 (stereo unspecified) | -45.59% | -11.33%
COCCN(C)CC1CCCN1S(=O)(=O)Cc1ccccc1F (stereo unspecified) | -38.02% | -13.31%
Cc1cccc(OC2CCN(c3nccnc3C#N)CC2)n1 | -52.89% | 17.71%
NC(=O)CN1CC2(CCC1=O)CCN(Cc1cc(F)ccc1Cl)CC2 | 6.408% | 16.73%
CC(C)NC(=O)CCN1CCC(C(=O)c2cc(F)ccc2F)CC1 | -31.02% | 35.12%
Cc1noc(C2CCN(C(=O)c3ccc(C(F)(F)F)nc3)CC2)n1 | - | 25.73%

Once more, the final 4:

{"structure": "Cc1cccc(OC2CCN(c3nccnc3C#N)CC2)n1", "T. brucei": -52.89, "Leishmania in macrophages": 17.71}
{"structure": "NC(=O)CN1CC2(CCC1=O)CCN(Cc1cc(F)ccc1Cl)CC2", "T. brucei": 6.408, "Leishmania in macrophages": 16.73}
{"structure": "CC(C)NC(=O)CCN1CCC(C(=O)c2cc(F)ccc2F)CC1", "T. brucei": -31.02, "Leishmania in macrophages": 35.12}
{"structure": "Cc1noc(C2CCN(C(=O)c3ccc(C(F)(F)F)nc3)CC2)n1", "Leishmania in macrophages": 25.73}